Measurements reported in PubChem BioAssay AID504784 (Drosophila RNAi Screening Center, 2011).

Assay: 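Search for regulators of lipid droplet storage in oleate-fed fly cells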 (primary screen)
Cell system: Drosophila Kc167 embryonic cells
Knock-down reagent: long dsRNA against Drosophila genes, about 250 ng dsRNA per well
Timing: 4 days
Challenge: cells fed 400 µM oleic acid bound to BSA
Detection: 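Cells imaged and segmented; ratio of lipid droplet area to nuclear area, log-transformed, then normalised as a B-score over the screen; higher means more stored lipid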
Direction: droplet/nuclear area B-score: higher = more stored lipid (overstorage)
In all, the deposit lists about 17,000 reagents; shown is a random part of those with a known target gene and a result. 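Each column is one replicate's B-score; the combined score over replicates was not deposited, so single values may mislead.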 A plus sign joins genes that one reagent is predicted to hit.

gene | DRSC id | droplet/nuclear area B-score, replicate 1 | droplet/nuclear area B-score, replicate 2 | droplet/nuclear area B-score, replicate 3
AANATL2 (Arylalkylamine N-acetyltransferase-like 2) | DRSC03227 | -0.00379 | -0.1 | –
GluRIIA (Glutamate receptor IIA) | DRSC03334 | 0.437 | -1.42 | –
CG4021 | DRSC04439 | 1.41 | 0.165 | –
CG15717 | DRSC19684 | -0.391 | -0.152 | 1.19
Septin2 (Septin 2) | DRSC16855 | 3.88 | -0.697 | –
Wwox (WW domain containing oxidoreductase) | DRSC03030 | 0.396 | 0.901 | -0.869
Wwox (WW domain containing oxidoreductase) | DRSC22872 | -0.478 | -0.224 | –
Sec24CD (Secretory 24CD) | DRSC00300 | 1.22 | -0.0263 | –
HLH3B (Helix loop helix protein 3B) | DRSC18669 | -1.45 | -0.215 | –
CG3492 | DRSC04373 | 0.642 | 0.0186 | –
CG18223 | DRSC10306 | 0.181 | 0.733 | –
brun (brunelleschi) | DRSC02706 | -1.45 | -2.75 | –
CG14423 | DRSC17920 | 0.0179 | -1.84 | –
CG13365 | DRSC17899 | -0.0186 | -0.638 | –
osy (oskyddad) | DRSC14903 | 0.0565 | 0.262 | –
osy (oskyddad) | DRSC15979 | -1.43 | 1.26 | –
osy (oskyddad) | DRSC15981 | 0.342 | -0.674 | –
gsb-n (gooseberry-neuro) | DRSC04021 | 0.994 | 0.948 | –
gsb-n (gooseberry-neuro) | DRSC04693 | 0.105 | 0.0822 | –

A stretch of the results above:
gene | DRSC id | droplet/nuclear area B-score, replicate 1 | droplet/nuclear area B-score, replicate 2 | droplet/nuclear area B-score, replicate 3
CG13365 | DRSC17899 | -0.0186 | -0.638 | –
osy (oskyddad) | DRSC14903 | 0.0565 | 0.262 | –
osy (oskyddad) | DRSC15979 | -1.43 | 1.26 | –

The list goes on.
gene | DRSC id | droplet/nuclear area B-score, replicate 1 | droplet/nuclear area B-score, replicate 2 | droplet/nuclear area B-score, replicate 3
CG13575 | DRSC04211 | -0.156 | -0.452 | –
CG13575 | DRSC22851 | -0.648 | -0.0246 | –
CG18294 + 825-Oak + CG32214 + 2 more | DRSC22210 | -0.672 | 1.46 | –
CG11414 | DRSC04110 | 1.96 | -0.106 | –
Nup133 (Nucleoporin 133kD) | DRSC16150 | 0.749 | -0.277 | –
Mpv17 (Mitochondrial inner membrane protein MPV17) | DRSC17198 | -0.647 | -0.406 | –
CG6574 | DRSC16070 | 0.319 | 1.95 | –
Baldspot | DRSC09671 | -0.882 | 1.04 | –
obst-G (obstructor-G) | DRSC11103 | 0.0184 | -0.519 | –
Sps1 (Selenophosphate synthetase 1) | DRSC07549 | -0.17 | -0.0773 | –
ebo (ellipsoid body open) | DRSC18787 | 1.45 | – | –
mbm + CG11555 | DRSC00315 | 1.8 | -3.87 | –
CG4666 | DRSC18379 | -0.347 | -0.0365 | –
CG9308 | DRSC04539 | -0.233 | -0.298 | –
CG13001 | DRSC19520 | -0.107 | -1.52 | 1.11
CG13001 | DRSC22443 | -0.394 | 0.196 | –
CG30222 | DRSC04125 | – | 1 | –
CG30222 | DRSC04262 | -0.35 | 0.543 | –
CG4230 | DRSC02740 | 0.0299 | -0.0845 | –
Takl1 (Tak1-like 1) | DRSC13443 | -0.885 | -0.0724 | –
foi (fear-of-intimacy) | DRSC10719 | 0.000308 | 2.59 | –
CG33252 | DRSC19162 | 2.45 | 0.752 | –
Crz (Corazonin) | DRSC16615 | 0.0533 | -1.83 | –
TTLL12 (Tubulin tyrosine ligase-like 12) | DRSC06555 | 0.715 | -0.627 | –
Cpr49Ad (Cuticular protein 49Ad) | DRSC07284 | -1.07 | 0.256 | –
sol (small optic lobes) | DRSC20587 | 0.83 | 0.289 | –
stmA (stambha A) | DRSC07593 | -1.07 | -0.019 | –
stmA (stambha A) | DRSC22179 | -0.409 | 0.543 | –
Gr36a (Gustatory receptor 36a) | DRSC22663 | -0.522 | 0.241 | –
Nhe3 (Na[+]/H[+] hydrogen exchanger 3) | DRSC03380 | -0.621 | 0.439 | –
PGRP-SC1a (Peptidoglycan recognition protein SC1a) | DRSC06482 | -0.132 | 0.181 | –
rgr (regular) | DRSC06487 | 1.44 | 3.08 | –
rgr (regular) | DRSC07229 | 0.902 | 2.96 | –
Art9 (Arginine methyltransferase 9) | DRSC16584 | 1.74 | -0.0989 | –
CG1578 | DRSC19729 | -0.125 | 0.0891 | 0.956
dom (domino) | DRSC04558 | -0.312 | 2.41 | –
dom (domino) | DRSC04559 | 1.59 | 3.02 | –
